PubChem BioAssay AID652272 – Drosophila RNAi Screening Center, 2013

- Screen: 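Finding fly genes that regulate Hedgehog signal transduction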 (primary screen)
- Cell system: Drosophila clone 8 (Cl8) cells
- Knock-down reagent: long dsRNA against Drosophila genes
- Measured: 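Firefly light from a Hedgehog-responsive ptc promoter reporter and Renilla reference light, both read on a plate reader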
- Reading the numbers: firefly Hh reporter signal: higher = more ptc reporter light; Renilla reference signal: higher = more Renilla control light
- Rule for the call: 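Called a hit if the two-replicate mean z-score lies below -2 or above +3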
- Calls: active = hit: reporter lowered or raised; inactive = not a hit
The deposit covers about 21,000 reagents; below is an unselected part of those with a known target gene and a result. Over the whole deposit, 503 (2.4%) are marked active. 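Raw plate light values, not normalised; calls rest on replicate z-scores that were not deposited; hits include reporter decreases as well as increases.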 The numbers tell different reagents against one gene apart. A plus sign joins genes that one reagent is predicted to hit. Not stated in the record: the amount of reagent, the time to read-out.

no.	Gene	dsRNA no.	firefly Hh reporter signal, replicate 1	firefly Hh reporter signal, replicate 2	firefly Hh reporter signal, replicate 3	Renilla reference signal, replicate 1	Renilla reference signal, replicate 2	Outcome
1	CG33127	1	6.12e5	2.40e5		31385	9325	inactive
2	Rab9D + Rab9Fa + Rab9E	1	76560	1.51e5		1878	5398	inactive
3	CG10669	1	4.63e5	64129		31160	1595	inactive
4	Cpr78Cc (Cuticular protein 78Cc)	1	1.45e5	1.09e5		5225	3192	inactive
5	Tap42 (Two A-associated protein of 42kDa)	1	1.02e5	41845		2714	3894	inactive
6	IntS1 (Integrator 1)	1	1.12e5	46631		4870	1831	inactive
7	Gr97a (Gustatory receptor 97a)	1	42835	1.84e5		10939	4228	inactive
8	CG5377	1	5.09e5	1.34e5		32944	389	inactive
9	Mkrn1 (Makorin 1)	1	1.38e5	1.73e5		5004	4853	inactive
10	Ugt36A1 (UDP-glycosyltransferase family 36 member A1)	1	1.97e5	79091		5050	8194	inactive
11	m-cup (mann-cup)	1	59244	87901		1602	5815	inactive
12	CG31675	1	1.53e5	3.15e5		4005	12807	inactive
13	Hsp70Bc (Heat shock protein 70 Bc)	1	57239	94569		2156	2636	inactive
14	Alg12 (Alg12 alpha-1,6-mannosyltransferase)	1	59842	1.41e5		1593	3489	inactive
15	eco (Establishment of cohesion)	1	97856	54854		4001	2528	inactive
16	CRIF (CR6-interacting factor)	1	78589	86108		2728	2755	inactive
17	Cyp6t1 (Cytochrome P450 6t1)	1	1.07e5	3.26e5		2896	14387	inactive
18	CG8172	1	1.87e5	83196		4760	6566	inactive
19	CG17597	1	73313	1.16e5		3152	4380	inactive
20	cos (costa)	1	70519	47995		4162	3376	active
21	Mtl (Mig-2-like)	1	1.06e5	1.09e5		3394	3708	inactive
22	CG5004	1	86784	1.65e5		1699	7284	inactive
23	CG5004	2	71958	2.66e5		930	11049	inactive
24	CG5004	3	60684	86604		1642	3475	inactive
25	ATPsynbetaL (ATP synthase, beta subunit-like)	1	1.32e5			5936	3426	inactive
26	jdp	1	88344	1.07e5		1603	3164	inactive
27	CG3163	1	1.00e5	1.02e5		3876	4029	inactive
28	Mmp1 (Matrix metalloproteinase 1)	1	72665	41041		1771	3425	inactive
29	Nup160 (Nucleoporin 160kD)	1	45737	32867		1264	4346	inactive
30	Him (Holes in muscle)	1	55812	1.75e5		2124	7347	inactive
31	CG17242	1	83307	86413		1796	2108	inactive
32	alphaTub67C (alpha-Tubulin at 67C)	1	15543	75481	66745	6989	4772	inactive
33	rasp	1	91580	27817		2833	364	inactive
34	CG31882	1	6.56e5	2.40e5		31664	9952	inactive
35	TfIIA-L (Transcription factor IIA L)	1	1.12e5	64247		2883	1811	inactive
36	CG13056	1	1.62e5			6330	4544	inactive
37	Dr (Drop)	1	1.63e5	7.08e5	1.44e5	4134	6065	inactive
38	CG33919	1	1.77e5	2.95e5		4816	12504	inactive
39	tral (trailer hitch)	1	68663	29943		3568	1792	inactive
40	Tdh (L-threonine dehydrogenase)	1	1.26e5	83500		4345	2961	inactive
41	CG15432	1	73832	36091		1677	4118	inactive
42	CG10311	1	86773	1.09e5		2809	2692	inactive
43	osa	1	1.90e5	96752		5979	2930	inactive
44	Miro (Mitochondrial Rho)	1	1.12e5	97507		4258	3690	inactive
45	CG3117	1	1.64e5	92829		3624	2387	inactive
46	Nup214 (Nucleoporin 214kD)	1	98352	74237		5209	3795	inactive
47	CG1494	1	89685	2.13e5		2872	8949	inactive
48	CG6688	1	5.01e5	80993		28871	2713	inactive
49	Gorab (Golgin, RAB6 interacting)	1	1.04e5			6771	2868	inactive
50	Marf (Mitochondrial assembly regulatory factor)	1	82341	95472		1670	2291	inactive
51	CG2336	1	43000	93643		1850	2618	inactive
52	Rab9Fb (Rab at 9Fb)	1	85111	2.89e5		2736	10640	inactive
53	CG15022	1	50215	54758		8064	4209	inactive
54	Ack (Activated Cdc42 kinase)	1	60901	39356		2136	3155	inactive
55	CG32241	1	6.06e5	1.63e5	1.43e5	5812	4804	inactive
56	U2af38 (U2 small nuclear riboprotein auxiliary factor 38)	1	1.10e5	68533		3494	2088	inactive
57	CG17738	1	68861	1.18e5		2183	3260	inactive
58	RhoGAP100F (Rho GTPase activating protein at 100F)	1	66037	61641		1826	2115	inactive
59	CG11808	1	1.40e5	1.27e5		4850	4797	inactive
60	CG17549	1	1.12e5	82410		5584	3797	inactive
61	Nap1 (Nucleosome assembly protein 1)	1	89513	1.25e5		4327	4699	inactive
62	CG34434	1	91579	3.05e5		2693	8409	inactive
63	Sr-CI (Scavenger receptor class C, type I)	1	5.73e5	1.05e5		4409	4409	inactive
64	Sodh1 (Sorbitol dehydrogenase 1)	1	1.48e5	1.02e5		5752	3874	inactive
65	CG10184	1	97200	1.11e5		3840	4141	inactive
66	NimB5 (Nimrod B5)	1	1.29e5	61980		3424	5809	inactive
67	CG5921	1	6.17e5	2.35e5		34754	4554	inactive
68	CG5921	2	52036	1.62e5		1304	6955	inactive
69	Tsp66A + CG42661 + CG42660	1	94116	54928		9373	3984	inactive
70	CG18662	1	1.16e5	40365		3077	4281	inactive
71	CG9281	1	1.09e5	70829		2800	2313	inactive
72	CG8613	1	1.32e5	71930		4657	2778	inactive
73	fan (farinelli)	1	46930	67106		5219	5008	inactive

10 entries already listed, arranged by “Renilla reference signal, replicate 2”, high to low:
Gene	dsRNA no.	firefly Hh reporter signal, replicate 1	firefly Hh reporter signal, replicate 2	firefly Hh reporter signal, replicate 3	Renilla reference signal, replicate 1	Renilla reference signal, replicate 2	Outcome
CG34434	1	91579	3.05e5		2693	8409	inactive
CG5921	2	52036	1.62e5		1304	6955	inactive
NimB5 (Nimrod B5)	1	1.29e5	61980		3424	5809	inactive
Nap1 (Nucleosome assembly protein 1)	1	89513	1.25e5		4327	4699	inactive
CG5921	1	6.17e5	2.35e5		34754	4554	inactive
Sr-CI (Scavenger receptor class C, type I)	1	5.73e5	1.05e5		4409	4409	inactive
CG10184	1	97200	1.11e5		3840	4141	inactive
Tsp66A + CG42661 + CG42660	1	94116	54928		9373	3984	inactive
Sodh1 (Sorbitol dehydrogenase 1)	1	1.48e5	1.02e5		5752	3874	inactive
CG17549	1	1.12e5	82410		5584	3797	inactive
